The source of these data is paper PMC11014671, “Small molecules that disrupt RAD54-BLM interaction hamper tumor proliferation in colon cancer chemoresistance models” (The Journal of Clinical Investigation, 2024).

Chains of the proteins cited; added tags and fusions are not shown.
UniProt O88700: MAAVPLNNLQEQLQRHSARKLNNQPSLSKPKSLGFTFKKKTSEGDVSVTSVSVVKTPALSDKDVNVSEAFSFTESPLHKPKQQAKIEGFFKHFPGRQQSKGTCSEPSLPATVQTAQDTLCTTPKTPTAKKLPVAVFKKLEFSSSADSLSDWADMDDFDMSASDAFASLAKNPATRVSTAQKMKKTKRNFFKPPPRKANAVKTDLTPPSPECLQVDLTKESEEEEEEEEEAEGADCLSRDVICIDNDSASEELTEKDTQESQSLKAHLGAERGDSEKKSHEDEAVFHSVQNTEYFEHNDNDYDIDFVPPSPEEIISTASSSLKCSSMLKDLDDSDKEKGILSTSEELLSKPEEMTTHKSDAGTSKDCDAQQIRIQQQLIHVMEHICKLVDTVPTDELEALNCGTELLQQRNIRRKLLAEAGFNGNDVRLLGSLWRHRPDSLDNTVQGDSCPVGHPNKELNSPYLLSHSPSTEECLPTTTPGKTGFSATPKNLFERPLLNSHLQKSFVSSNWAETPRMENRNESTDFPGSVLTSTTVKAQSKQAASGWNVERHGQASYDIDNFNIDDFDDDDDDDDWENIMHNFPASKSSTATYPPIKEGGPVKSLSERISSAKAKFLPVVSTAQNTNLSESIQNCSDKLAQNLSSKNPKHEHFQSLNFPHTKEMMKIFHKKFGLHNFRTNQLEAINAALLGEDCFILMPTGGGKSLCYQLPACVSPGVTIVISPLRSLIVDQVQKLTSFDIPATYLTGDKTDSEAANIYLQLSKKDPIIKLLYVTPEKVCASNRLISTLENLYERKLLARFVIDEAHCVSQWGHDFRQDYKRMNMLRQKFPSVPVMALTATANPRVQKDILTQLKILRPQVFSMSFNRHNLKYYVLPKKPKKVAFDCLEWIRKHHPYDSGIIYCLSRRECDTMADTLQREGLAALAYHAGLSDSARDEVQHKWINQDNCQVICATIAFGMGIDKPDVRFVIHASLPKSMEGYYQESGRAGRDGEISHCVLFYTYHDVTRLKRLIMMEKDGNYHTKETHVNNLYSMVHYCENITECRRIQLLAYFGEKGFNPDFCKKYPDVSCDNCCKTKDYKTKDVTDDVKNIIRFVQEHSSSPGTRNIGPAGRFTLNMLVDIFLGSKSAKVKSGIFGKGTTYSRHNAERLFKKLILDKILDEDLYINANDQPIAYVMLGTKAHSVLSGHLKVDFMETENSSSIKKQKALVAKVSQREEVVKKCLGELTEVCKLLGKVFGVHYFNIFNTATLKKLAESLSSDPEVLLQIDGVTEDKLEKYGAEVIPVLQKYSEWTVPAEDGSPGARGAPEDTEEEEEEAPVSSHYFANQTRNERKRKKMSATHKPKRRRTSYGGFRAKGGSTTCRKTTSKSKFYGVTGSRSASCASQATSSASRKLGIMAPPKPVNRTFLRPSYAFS

The target of the assay is T1, RAD54 (endogenous, murine CT26 cells) (mouse (endogenous in CT26)) (UniProt P70270).
T1 sequence: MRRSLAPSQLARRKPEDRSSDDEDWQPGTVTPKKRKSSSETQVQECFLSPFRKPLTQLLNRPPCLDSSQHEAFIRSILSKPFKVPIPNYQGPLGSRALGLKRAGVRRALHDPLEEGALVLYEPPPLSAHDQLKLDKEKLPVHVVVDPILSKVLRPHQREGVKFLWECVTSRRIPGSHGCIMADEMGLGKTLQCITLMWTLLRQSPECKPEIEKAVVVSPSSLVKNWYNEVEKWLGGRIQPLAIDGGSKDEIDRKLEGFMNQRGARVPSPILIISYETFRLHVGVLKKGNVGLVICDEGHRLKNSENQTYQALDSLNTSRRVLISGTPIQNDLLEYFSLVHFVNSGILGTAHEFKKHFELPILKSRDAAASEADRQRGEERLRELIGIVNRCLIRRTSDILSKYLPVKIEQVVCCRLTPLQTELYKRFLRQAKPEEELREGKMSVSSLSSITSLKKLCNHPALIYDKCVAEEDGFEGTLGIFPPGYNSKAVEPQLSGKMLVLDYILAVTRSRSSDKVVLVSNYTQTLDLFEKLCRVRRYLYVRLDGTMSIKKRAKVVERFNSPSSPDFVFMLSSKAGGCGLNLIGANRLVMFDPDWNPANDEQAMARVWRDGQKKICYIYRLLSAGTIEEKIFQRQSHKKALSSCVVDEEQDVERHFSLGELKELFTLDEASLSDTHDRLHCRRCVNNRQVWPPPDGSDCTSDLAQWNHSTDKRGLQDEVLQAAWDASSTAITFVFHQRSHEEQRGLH
The assay can be described thus: co-IP; lysates of HCT116 (human) or CT26 (murine) cells immunoprecipitated with anti-RAD54 antibodies, immunoprecipitates probed with anti-BLM antibodies; anti-IgG as control.

These are yes or no findings as the source states them, for the method shown. Binding seen in cells or lysates may run through a third protein. Some entries that bind do so weakly or less than the wild type.

As to “BLM (endogenous, murine CT26 cells) (from UniProt O88700 1-1416)”, the binding result is recorded as “binds”.
